# In the supplement of paper PMC8728848:
# This is one part of the list.
# B1: HA-00510 (Pseudomonas aeruginosa), Q02V39_PSEAB (protein)
# chain: GVPIVNIATPNGAGLSNNHFRDYNVGANGLILNNATGKTQGTQLGGIILGNPNLKGQAAQVILNQVTGGNRSTLAGYTEVAGQSARVIVANPHGITCQGCGFINTPRATLTTGKPIMDGQRLERFQVDGGDIVVEGAELNVGNLEQFDLITRSAKLNAKLYAKNLNIVTGRNDVQADSLQATPRAADGSEKPQLAIDSSALGGMYAGAIRLVGTEQGVGVKLAGDMAASGGDIRIDASGKLSLAQASSQGDLKIAAQAVELNGKTYAGGSAEIRSAEELVNRQS
# Tests used:
# Assay in all cases: glycan array binding signal (z-score within array); higher = stronger binding
# Conditions in all cases: glycan notation: IUPAC condensed, linker removed
# [1] = target: Neu5Ac(a2-3)Gal(b1-4)GlcNAc(b1-2)Man(a1-3)[Neu5Ac(a2-6)Gal(b1-4)GlcNAc(b1-2)Man(a1-6)]Man(b1-4)GlcNAc(b1-4)GlcNAc
# Summary of the method: (§1)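 Glycan array binding is given as a within-array Z-score, which can be read as non-binding when negative. The arrays, 3228 of them, came from the Consortium for Functional Glycomics database and were retained only where the protein sequence was available. Z-scores were averaged across arrays of the same protein sequence at different concentrations or buffers and across linkers.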
# [2] = target: Neu5Ac(a2-3)Gal(b1-4)GlcNAc(b1-2)[Neu5Ac(a2-3)Gal(b1-4)GlcNAc(b1-4)]Man(a1-3)[GlcNAc(b1-4)][Neu5Ac(a2-3)Gal(b1-4)GlcNAc(b1-2)[Neu5Ac(a2-3)Gal(b1-4)GlcNAc(b1-6)]Man(a1-6)]Man(b1-4)GlcNAc(b1-4)GlcNAc
# Summary of the method: as §1
# [3] = target: Neu5Ac(a2-3)Gal(b1-4)GlcNAc(b1-2)[Neu5Ac(a2-3)Gal(b1-4)GlcNAc(b1-4)]Man(a1-3)[GlcNAc(b1-4)][Neu5Ac(a2-3)Gal(b1-4)GlcNAc(b1-4)Man(a1-6)]Man(b1-4)GlcNAc(b1-4)GlcNAc
# Summary of the method: as §1
# [4] = target: Neu5Ac(a2-3)Gal(b1-4)GlcNAc(b1-2)[Neu5Ac(a2-3)Gal(b1-4)GlcNAc(b1-6)]Man(a1-6)[Neu5Ac(a2-3)Gal(b1-4)GlcNAc(b1-2)Man(a1-3)][GlcNAc(b1-4)]Man(b1-4)GlcNAc(b1-4)GlcNAc
# Summary of the method: as §1
# [5] = target: Neu5Ac(a2-3)Gal(b1-4)GlcNAc(b1-3)Gal
# Summary of the method: as §1
# [6] = target: Neu5Ac(a2-3)Gal(b1-4)GlcNAc(b1-3)Gal(b1-3)GlcNAc
# Summary of the method: as §1
# [7] = target: Neu5Ac(a2-3)Gal(b1-4)GlcNAc(b1-3)Gal(b1-4)GlcNAc
# Summary of the method: as §1
# [8] = target: Neu5Ac(a2-3)Gal(b1-4)GlcNAc(b1-3)Gal(b1-4)GlcNAc(b1-2)Man(a1-3)[Neu5Ac(a2-3)Gal(b1-4)GlcNAc(b1-3)Gal(b1-4)GlcNAc(b1-2)Man(a1-6)]Man(b1-4)GlcNAc(b1-4)GlcNAc
# Summary of the method: as §1
# [9] = target: Neu5Ac(a2-3)Gal(b1-4)GlcNAc(b1-3)Gal(b1-4)GlcNAc(b1-3)Gal(b1-4)GlcNAc
# Summary of the method: as §1
# [10] = target: Neu5Ac(a2-3)Gal(b1-4)GlcNAc(b1-3)Gal(b1-4)GlcNAc(b1-3)Gal(b1-4)GlcNAc(b1-2)Man(a1-3)[Neu5Ac(a2-3)Gal(b1-4)GlcNAc(b1-3)Gal(b1-4)GlcNAc(b1-3)Gal(b1-4)GlcNAc(b1-2)Man(a1-6)]GalNAc
# Summary of the method: as §1
# [11] = target: Neu5Ac(a2-3)Gal(b1-4)GlcNAc(b1-3)Gal(b1-4)GlcNAc(b1-3)GalNAc
# Summary of the method: as §1
# [12] = target: Neu5Ac(a2-3)Gal(b1-4)GlcNAc(b1-3)Gal(b1-4)GlcNAc(b1-3)[Neu5Ac(a2-3)Gal(b1-4)GlcNAc(b1-3)Gal(b1-4)GlcNAc(b1-6)]GalNAc
# Summary of the method: as §1
# [13] = target: Neu5Ac(a2-3)Gal(b1-4)GlcNAc(b1-3)Gal(b1-4)GlcNAc(b1-6)[Gal(b1-3)]GalNAc
# Summary of the method: as §1
# [14] = target: Neu5Ac(a2-3)Gal(b1-4)GlcNAc(b1-3)Gal(b1-4)[Fuc(a1-3)]GlcNAc
# Summary of the method: as §1
# [15] = target: Neu5Ac(a2-3)Gal(b1-4)GlcNAc(b1-3)GalNAc
# Summary of the method: as §1
# [16] = target: Neu5Ac(a2-3)Gal(b1-4)GlcNAc(b1-3)[Neu5Ac(a2-3)Gal(b1-4)GlcNAc(b1-6)]GalNAc
# Summary of the method: as §1
# [17] = target: Neu5Ac(a2-3)Gal(b1-4)GlcNAc(b1-6)GalNAc
# Summary of the method: as §1
# [18] = target: Neu5Ac(a2-3)Gal(b1-4)GlcNAc(b1-6)[Gal(b1-3)]GalNAc
# Summary of the method: as §1
# [19] = target: Neu5Ac(a2-3)Gal(b1-4)GlcNAc(b1-6)[Neu5Ac(a2-3)Gal(b1-3)]GalNAc
# Summary of the method: as §1
# [20] = target: Neu5Ac(a2-3)Gal(b1-4)GlcNAc6S
# Summary of the method: as §1
# [21] = target: Neu5Ac(a2-3)Gal(b1-4)[Fuc(a1-3)]GlcNAc
# Summary of the method: as §1
# [22] = target: Neu5Ac(a2-3)Gal(b1-4)[Fuc(a1-3)]GlcNAc(b1-2)Man
# Summary of the method: as §1
# [23] = target: Neu5Ac(a2-3)Gal(b1-4)[Fuc(a1-3)]GlcNAc(b1-3)Gal
# Summary of the method: as §1
# [24] = target: Neu5Ac(a2-3)Gal(b1-4)[Fuc(a1-3)]GlcNAc(b1-3)Gal(b1-4)GlcNAc
# Summary of the method: as §1
# [25] = target: Neu5Ac(a2-3)Gal(b1-4)[Fuc(a1-3)]GlcNAc(b1-3)Gal(b1-4)[Fuc(a1-3)]GlcNAc(b1-3)Gal(b1-4)[Fuc(a1-3)]GlcNAc
# Summary of the method: as §1
# [26] = target: Neu5Ac(a2-3)Gal(b1-4)[Fuc(a1-3)]GlcNAc(b1-3)GalNAc
# Summary of the method: as §1
# [27] = target: Neu5Ac(a2-3)Gal(b1-4)[Fuc(a1-3)]GlcNAc(b1-6)[Gal(b1-3)]GalNAc
# Summary of the method: as §1
# [28] = target: Neu5Ac(a2-3)Gal(b1-4)[Fuc(a1-3)]GlcNAc(b1-6)[Neu5Ac(a2-3)Gal(b1-3)]GalNAc
# Summary of the method: as §1
# [29] = target: Neu5Ac(a2-3)Gal(b1-4)[Fuc(a1-3)]GlcNAc6S
# Summary of the method: as §1
# [30] = target: Neu5Ac(a2-3)Gal6S(b1-4)GlcNAc
# Summary of the method: as §1
# [31] = target: Neu5Ac(a2-3)Gal6S(b1-4)[Fuc(a1-3)]GlcNAc
# Summary of the method: as §1
# [32] = target: Neu5Ac(a2-3)GalNAc
# Summary of the method: as §1
# [33] = target: Neu5Ac(a2-3)GalNAc(b1-4)GlcNAc
# Summary of the method: as §1
# [34] = target: Neu5Ac(a2-3)[GalNAc(b1-4)]Gal(b1-4)Glc
# Summary of the method: as §1
# [35] = target: Neu5Ac(a2-3)[GalNAc(b1-4)]Gal(b1-4)GlcNAc
# Summary of the method: as §1
# [36] = target: Neu5Ac(a2-3)[GalNAc(b1-4)]Gal(b1-4)GlcNAc(b1-3)GalNAc
# Summary of the method: as §1
# [37] = target: Neu5Ac(a2-3)[Neu5Ac(a2-6)]GalNAc
# Summary of the method: as §1
# [38] = target: Neu5Ac(a2-6)Gal
# Summary of the method: as §1
# [39] = target: Neu5Ac(a2-6)Gal(b1-3)GlcNAc(b1-3)[Gal(b1-4)GlcNAc(b1-6)]Gal(b1-4)Glc
# Summary of the method: as §1
# [40] = target: Neu5Ac(a2-6)Gal(b1-4)Glc
# Summary of the method: as §1
# [41] = target: Neu5Ac(a2-6)Gal(b1-4)GlcNAc
# Summary of the method: as §1
# [42] = target: Neu5Ac(a2-6)Gal(b1-4)GlcNAc(b1-2)Man
# Summary of the method: as §1
# [43] = target: Neu5Ac(a2-6)Gal(b1-4)GlcNAc(b1-2)Man(a1-3)Man(b1-4)GlcNAc(b1-4)GlcNAc
# Summary of the method: as §1
# [44] = target: Neu5Ac(a2-6)Gal(b1-4)GlcNAc(b1-2)Man(a1-3)[Gal(b1-4)GlcNAc(b1-2)Man(a1-6)]Man(b1-4)GlcNAc(b1-4)GlcNAc
# Summary of the method: as §1
# [45] = target: Neu5Ac(a2-6)Gal(b1-4)GlcNAc(b1-2)Man(a1-3)[GlcNAc(b1-2)Man(a1-6)]Man(b1-4)GlcNAc(b1-4)GlcNAc
# Summary of the method: as §1
binder,measurement,setting,value
B1,glycan array binding signal (z-score),[1],0.265
same,glycan array binding signal (z-score),[2],0.048
same,glycan array binding signal (z-score),[3],0.115
same,glycan array binding signal (z-score),[4],-0.318
same,glycan array binding signal (z-score),[5],0.339
same,glycan array binding signal (z-score),[6],-0.886
same,glycan array binding signal (z-score),[7],0.193
same,glycan array binding signal (z-score),[8],0.962
same,glycan array binding signal (z-score),[9],-0.41
same,glycan array binding signal (z-score),[10],3.77
same,glycan array binding signal (z-score),[11],-0.205
same,glycan array binding signal (z-score),[12],-0.447
same,glycan array binding signal (z-score),[13],-0.893
same,glycan array binding signal (z-score),[14],-0.182
same,glycan array binding signal (z-score),[15],0.71
same,glycan array binding signal (z-score),[16],-0.496
same,glycan array binding signal (z-score),[17],0.14
same,glycan array binding signal (z-score),[18],1.16
same,glycan array binding signal (z-score),[19],-0.64
same,glycan array binding signal (z-score),[20],-0.604
same,glycan array binding signal (z-score),[21],0.033
same,glycan array binding signal (z-score),[22],-1.16
same,glycan array binding signal (z-score),[23],-0.741
same,glycan array binding signal (z-score),[24],1
same,glycan array binding signal (z-score),[25],-0.98
same,glycan array binding signal (z-score),[26],2.86
same,glycan array binding signal (z-score),[27],-0.302
same,glycan array binding signal (z-score),[28],0.217
same,glycan array binding signal (z-score),[29],-1.9
same,glycan array binding signal (z-score),[30],-0.228
same,glycan array binding signal (z-score),[31],-0.511
same,glycan array binding signal (z-score),[32],-0.748
same,glycan array binding signal (z-score),[33],1.19
same,glycan array binding signal (z-score),[34],-0.269
same,glycan array binding signal (z-score),[35],-0.631
same,glycan array binding signal (z-score),[36],0.049
same,glycan array binding signal (z-score),[37],0.268
same,glycan array binding signal (z-score),[38],0.437
same,glycan array binding signal (z-score),[39],0.292
same,glycan array binding signal (z-score),[40],0.506
same,glycan array binding signal (z-score),[41],-0.542
same,glycan array binding signal (z-score),[42],2.52
same,glycan array binding signal (z-score),[43],-0.14
same,glycan array binding signal (z-score),[44],0.172
same,glycan array binding signal (z-score),[45],-0.189

# Rewritten as tab-separated lines: entries from further up.
binder	measurement	setting	value
B1	glycan array binding signal (z-score)	[33]	1.19
same	glycan array binding signal (z-score)	[34]	-0.269
same	glycan array binding signal (z-score)	[35]	-0.631
same	glycan array binding signal (z-score)	[36]	0.049
